# Source: article PMC9464412
# These are yes or no findings as the source states them, for the method shown. In cells and extracts the contact can be indirect. Some binding calls cover weakened binding; strength is not graded here. Tags and fused reporters may be left off the sequences shown.
# T1: Flag-tagged QKI (Quaking) (UniProt Q9QYS9)
# T1 sequence: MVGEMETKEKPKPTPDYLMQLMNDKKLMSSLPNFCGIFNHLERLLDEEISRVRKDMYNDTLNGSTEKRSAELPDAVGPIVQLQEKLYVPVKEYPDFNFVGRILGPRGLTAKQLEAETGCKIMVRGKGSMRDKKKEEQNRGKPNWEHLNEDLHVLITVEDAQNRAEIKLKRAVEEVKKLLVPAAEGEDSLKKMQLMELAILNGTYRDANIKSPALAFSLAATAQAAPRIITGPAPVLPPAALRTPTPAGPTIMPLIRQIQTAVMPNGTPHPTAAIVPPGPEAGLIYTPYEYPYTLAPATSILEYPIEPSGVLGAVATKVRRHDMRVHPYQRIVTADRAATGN
# B1: EDC3, endogenous (protein, UniProt Q8K2D3 1-508)
# chain: MAMDWLGSIVSINCGDSLGVYQGRVSAVDQVSQTISLTRPFHNGVKCLVPEVTFRAGDITELKILEIPGPGDNQQVGDLHQTELGPSGVGYQMSISQNGTGKVVKKPASSSSAPQSIPKRTDVKSQDVAISPQQQQCSKSYVDRHMESLSQSKSFRRRHNSWSSSSRHPNQATPKKSGLKNGQMKNKDDECFGDDIEELPDTDFDFEGNLALFDKAAVFEEIDTYERRSGSRSRGVPNERPARYRHDENILESEPIVYRRITVPHSVSKEFCTDSGLVVPSVSYELHKKLLSVAEKHGLTLERRLEMTGVCASQMALTLLGGPNRLNPKNVHQRPTVALLCGPHVKGAQGISCGRHLANHDVQVILFLPNFVKMLESITNELSLFSKTQGQQVSSLRDLPASPVDLVINCLDCPENAFLRDQPWYKAAVAWANQNRAPVLSIDPPVHEVEQGIDAKWSLALGLPLPLGEHAGRVYLCDIGIPQQVFQEVGINYHSPFGCKFVIPLHSA
# Biological target: T1, Flag-tagged QKI (Quaking)
# Assay: co-IP; RAW264.7 cells transfected with Flag-tagged QKI; whole-cell lysate immunoprecipitated with anti-Flag, blotted for EDC3 and DDX6; IP buffer 50 mM Tris-Cl pH 7.5, 150 mM KCl, 0.5% NP40
binder,measurement,value
B1,binding,binds
